Laboratory results as given in article PMC9523048.
These are yes or no findings as the source states them, for the method shown. In cells and extracts the contact can be indirect. Here binding means that the protein was enriched with, or labelled near, the bait; the list need not be complete. Where a sequence is shown, tags or fusion partners need not be part of it. Blank lines part the entries; values can stand above or below the molecule they belong to.

The chains behind the UniProt entries cited, without tags or fusion partners.
UniProt P62141: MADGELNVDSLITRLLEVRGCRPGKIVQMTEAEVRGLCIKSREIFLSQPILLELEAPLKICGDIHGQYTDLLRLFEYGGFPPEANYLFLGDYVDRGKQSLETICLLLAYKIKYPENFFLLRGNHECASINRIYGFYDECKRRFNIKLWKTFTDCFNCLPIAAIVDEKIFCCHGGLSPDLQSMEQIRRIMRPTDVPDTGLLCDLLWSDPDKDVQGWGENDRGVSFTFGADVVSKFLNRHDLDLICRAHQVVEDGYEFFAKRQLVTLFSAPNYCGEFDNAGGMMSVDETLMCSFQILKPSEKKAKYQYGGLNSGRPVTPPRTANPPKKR

Target: T1, FLAG-tagged human JMJD1A (human) (UniProt Q9Y4C1)
T1 sequence: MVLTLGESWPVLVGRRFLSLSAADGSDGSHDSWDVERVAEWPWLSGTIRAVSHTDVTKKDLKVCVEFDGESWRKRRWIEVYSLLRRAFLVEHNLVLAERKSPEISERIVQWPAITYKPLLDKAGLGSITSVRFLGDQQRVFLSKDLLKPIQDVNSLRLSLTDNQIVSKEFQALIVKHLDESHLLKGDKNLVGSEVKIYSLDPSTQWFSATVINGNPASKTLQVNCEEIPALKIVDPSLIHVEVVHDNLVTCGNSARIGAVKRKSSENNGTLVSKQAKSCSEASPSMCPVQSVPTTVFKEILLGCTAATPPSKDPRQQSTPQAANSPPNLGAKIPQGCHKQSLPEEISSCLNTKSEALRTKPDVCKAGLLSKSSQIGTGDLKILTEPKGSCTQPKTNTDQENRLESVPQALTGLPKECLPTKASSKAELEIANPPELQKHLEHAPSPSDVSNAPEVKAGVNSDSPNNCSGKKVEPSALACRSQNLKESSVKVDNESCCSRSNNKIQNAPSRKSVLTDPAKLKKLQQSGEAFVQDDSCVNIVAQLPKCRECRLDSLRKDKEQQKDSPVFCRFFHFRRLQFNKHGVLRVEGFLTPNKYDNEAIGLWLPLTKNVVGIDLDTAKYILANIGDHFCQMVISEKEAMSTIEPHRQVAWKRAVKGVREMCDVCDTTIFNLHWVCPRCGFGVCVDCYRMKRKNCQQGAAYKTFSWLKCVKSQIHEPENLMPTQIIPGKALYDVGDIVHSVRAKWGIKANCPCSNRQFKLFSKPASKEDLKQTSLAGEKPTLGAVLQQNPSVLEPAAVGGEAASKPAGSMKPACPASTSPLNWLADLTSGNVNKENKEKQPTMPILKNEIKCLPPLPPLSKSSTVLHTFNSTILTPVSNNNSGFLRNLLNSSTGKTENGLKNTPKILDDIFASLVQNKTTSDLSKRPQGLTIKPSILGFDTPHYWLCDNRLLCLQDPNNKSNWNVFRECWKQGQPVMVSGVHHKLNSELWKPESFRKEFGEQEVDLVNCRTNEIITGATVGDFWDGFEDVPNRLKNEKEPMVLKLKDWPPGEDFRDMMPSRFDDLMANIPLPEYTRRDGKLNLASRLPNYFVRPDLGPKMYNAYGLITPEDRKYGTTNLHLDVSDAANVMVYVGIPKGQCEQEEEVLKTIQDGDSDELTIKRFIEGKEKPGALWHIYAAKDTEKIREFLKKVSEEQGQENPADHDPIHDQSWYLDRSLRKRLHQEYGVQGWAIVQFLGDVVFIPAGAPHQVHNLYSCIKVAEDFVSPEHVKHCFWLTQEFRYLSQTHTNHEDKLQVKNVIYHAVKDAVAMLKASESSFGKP
Experiment: affinity purification with mass spectrometry; tandem affinity purification from 3T3-L1 pre-adipocytes expressing FLAG-tagged human JMJD1A: ANTI-FLAG M2 affinity gel (2 h, 4 °C), elution with 3X FLAG peptide, then anti-human JMJD1A (F3640) cross-linked to Dynabeads-Protein G (2 h, 4 °C); LC-MS/MS; two independent experiments; empty vector as control

binding: binds
Molecule: protein phosphatase 1 catalytic subunit beta (PP1β) (from UniProt P62141 1-327) (enzyme)

binding: binds
B1: myosin phosphatase target subunit 1 (MYPT1) (protein, UniProt Q9DBR7 1-1029)
chain: MKMADAKQKRNEQLKRWIGSETDLEPPVVKRQKTKVKFDDGAVFLAACSSGDTDEVLKLLHRGADINYANVDGLTALHQACIDDNVDMVKFLVENGANINQPDNEGWIPLHAAASCGYLDIAEFLIGQGAHVGAVNSEGDTPLDIAEEEAMEELLQNEVNRQGVDIEAARKEEERVMLRDARQWLNSGHISDVRHAKSGGTALHVAAAKGYTEVLKLLIQAGYDVNIKDYDGWTPLHAAAHWGKEEACRILVDNLCDMETVNKVGQTAFDVADEDILGYLEELQKKQTLLHSEKRDKKSPLIESTANMENNQPQKAFKNKETLIIEPEKNASRIESLEHEKADEEEEGKKDESSCSSEEDEEDDSESEAETDKTKPMASVSNAHTSSTQAAPAAVTAPTLSSNQGTPTSPVKKFPISTTKISPKEEERKDESPASWRLGLRKTGSYGALAEISASKEAQKEKDTAGVMRSASSPRLSSSLDNKEKEKDNKGTRLAYVTPTIPRRLASTSDIEEKENRESSSLRTSSSYTRRKWEDDLKKNSSINEGSTYHRSCSFGRRQDDLISCSVPSTTSTPTVTSAAGLQRSLPSSTSTAAKTPPGSSSAGTQSSTSNRLWAEDSTEKEKDSAPTAVTIPVAPTVVNAAAPSTTTLTTTTAGTVSEVRERRRSYLTPVRDEESESQRKARSRQARQSRRSTQGVTLTDLQEAEKTIGRSRSTRTREQENEEKEKEEKEKQDKEKQEEKKESEASREDEYKQKYSRTYDETYTRYRPVSTSSSSAPSSSSLSTLGSTLYASSQLNRPNSLVGITSAYSRGLAKENEREGEKKEEEKEGEDKSQPKSIRERRRPREKRRSTGVSFWTQDSDENEQERQSDTEDGSSKRETQTDSVSRYDSSSTSSSDRYDSLLGRSASYSYLEDRKPYSSRLEKDDSTDFKKLYEQILAENEKLKAQLHDTNMELTDLKLQLEKATQRQERFADRSQLEMEKRERRALERRISEMEEELKMLPDLKADNQRLKDENGALIRVISKLSK
